No constants are given. Whether binding was seen depends on the method and setting. Binding seen in cells or lysates may run through a third protein. Some entries that bind do so weakly or less than the wild type. Blank lines part the entries; values can stand above or below the substance they belong to.
Experiments:
GST-YAP = GST-YAP (UniProt P46937); assay: pull-down; lysate of LnCap cells transfected with Flag-ATXN3 incubated with GST-YAP or GST protein; bound ATXN3 detected by western blot; only the target purified
Myc-YAP full length = Myc-YAP full length (UniProt P46937); assay: co-IP; HEK293 cells transfected with 2 µg Myc-YAP and Flag-ATXN3 full length or mutants, 24 h, NP-40 lysis buffer; IP with Myc antibody, blot with Flag antibody
[1] = target: YAP (endogenous) (human (endogenous in LnCap)) (UniProt P46937); assay: co-IP; endogenous proteins in LnCap cells, RIPA lysis buffer; antibody overnight at 4 °C, protein A/G PLUS-Agarose beads; antibody as indicated in the figure
Flag-ATXN3 full length = Flag-ATXN3 full length (UniProt P54252); assay: co-IP; HEK293 cells transfected with 2 µg Flag-ATXN3 and Myc-YAP full length or mutants, 24 h, NP-40 lysis buffer; IP with Flag antibody, blot with Myc antibody

Amino acid sequences for entries named in this document (tags omitted).
UniProt P46937: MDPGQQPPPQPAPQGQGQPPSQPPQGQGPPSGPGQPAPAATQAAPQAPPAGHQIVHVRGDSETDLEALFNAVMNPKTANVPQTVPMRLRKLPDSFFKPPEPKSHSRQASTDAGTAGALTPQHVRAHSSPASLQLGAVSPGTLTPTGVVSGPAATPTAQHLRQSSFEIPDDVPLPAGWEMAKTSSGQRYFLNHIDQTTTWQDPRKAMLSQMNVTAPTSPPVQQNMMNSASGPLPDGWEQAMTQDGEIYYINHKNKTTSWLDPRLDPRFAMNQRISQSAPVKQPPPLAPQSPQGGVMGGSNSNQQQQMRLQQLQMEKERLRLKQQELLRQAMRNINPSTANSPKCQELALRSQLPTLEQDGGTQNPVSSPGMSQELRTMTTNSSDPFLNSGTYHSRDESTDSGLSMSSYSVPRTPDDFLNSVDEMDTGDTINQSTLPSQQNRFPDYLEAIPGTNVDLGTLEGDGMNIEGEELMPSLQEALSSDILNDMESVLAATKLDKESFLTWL
UniProt P54252: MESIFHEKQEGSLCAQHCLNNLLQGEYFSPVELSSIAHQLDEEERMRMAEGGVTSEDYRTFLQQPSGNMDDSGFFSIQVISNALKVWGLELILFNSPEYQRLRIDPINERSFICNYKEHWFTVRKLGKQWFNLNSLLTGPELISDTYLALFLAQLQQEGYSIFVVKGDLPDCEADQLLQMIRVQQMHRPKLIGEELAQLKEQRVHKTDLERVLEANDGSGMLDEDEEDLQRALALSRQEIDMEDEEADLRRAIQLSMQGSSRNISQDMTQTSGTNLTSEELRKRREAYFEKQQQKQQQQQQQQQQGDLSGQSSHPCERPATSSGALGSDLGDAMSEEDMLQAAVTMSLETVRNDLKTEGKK

binding (GST-YAP): binds
Substance: Flag-ATXN3 (in LnCap cells) (from UniProt P54252 1-361) (enzyme)

binding (Myc-YAP full length): binds
Substance: Flag-ATXN3 full length (from UniProt P54252 1-361) (enzyme)

binding [1]: binds
Substance: ATXN3 (endogenous) (from UniProt P54252 1-361) (enzyme)

binding (Flag-ATXN3 full length): binds
Substance: Myc-YAP full length (from UniProt P46937 1-504)
